The target of data set [1] is T1, AR DBD (mouse) (UniProt P19091).
T1 sequence (looked up, limits assumed): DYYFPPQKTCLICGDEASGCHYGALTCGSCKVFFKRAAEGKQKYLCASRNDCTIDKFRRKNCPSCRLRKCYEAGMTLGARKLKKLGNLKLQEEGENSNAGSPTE
Description: EMSA. The settings on record: no supershifted species; 150 mM NaCl, 40 mM Tris pH 8.0, 1 mM TCEP, 20 uM DHT, 10% glycerol, 0.01% NP40, on ice; EMSA 50 nM DNA, 250 nM protein; recombinant protein; protein details: Smt3 fusion, removed by Ulp1; label: 5' fluorescein (FP), unlabeled (EMSA). A general note: Mobility shift assays separate free from complexed probe on a gel.

The target in data set [2] is AR deltaNTD K861 mutant (mouse) (UniProt P19091). Nature of the data set: fluorescence polarization. The settings on record: DHT, text says abrogated, but gel shifts of most mutants resemble DBD; 150 mM NaCl, 40 mM Tris pH 8.0, 1 mM TCEP, 20 uM DHT, 10% glycerol, 0.01% NP40, on ice; FP 100 nM DNA, 0-4 uM protein; recombinant protein; protein details: Smt3 fusion, removed by Ulp1; label: 5' fluorescein (FP), unlabeled (EMSA). On the technique in general: Polarisation of emitted light reports the rotation of a fluorescent probe.

The target in data set [3] is AR deltaNTD R854 mutant (mouse) (UniProt P19091). Description: fluorescence polarization. The following applies: DHT, text says abrogated, but gel shifts of most mutants resemble DBD; 150 mM NaCl, 40 mM Tris pH 8.0, 1 mM TCEP, 20 uM DHT, 10% glycerol, 0.01% NP40, on ice; FP 100 nM DNA, 0-4 uM protein; recombinant protein; protein details: Smt3 fusion, removed by Ulp1; label: 5' fluorescein (FP), unlabeled (EMSA).

Data set [4] deals with T1, AR DBD (mouse). Nature of the data set: fluorescence polarization. The following applies: 150 mM NaCl, 40 mM Tris pH 8.0, 1 mM TCEP, 20 uM DHT, 10% glycerol, 0.01% NP40, on ice; FP 100 nM DNA, 0-4 uM protein; recombinant protein; protein details: Smt3 fusion, removed by Ulp1; label: 5' fluorescein (FP), unlabeled (EMSA).
Data set [5] addresses AR deltaNTD R761 mutant (mouse) (UniProt P19091). Nature of the data set: fluorescence polarization. The following applies: DHT, text says abrogated, 150 mM NaCl, 40 mM Tris pH 8.0, 1 mM TCEP, 20 uM DHT, 10% glycerol, 0.01% NP40, on ice, FP 100 nM DNA, 0-4 uM protein, recombinant protein, protein details: Smt3 fusion, removed by Ulp1.
Data set [6] addresses AR deltaNTD N759/R761 double mutant (mouse) (UniProt P19091). Nature of the data set: fluorescence polarization. The settings on record: DHT, text says abrogated, 150 mM NaCl, 40 mM Tris pH 8.0, 1 mM TCEP, 20 uM DHT, 10% glycerol, 0.01% NP40, on ice, FP 100 nM DNA, 0-4 uM protein, recombinant protein, protein details: Smt3 fusion, removed by Ulp1.
Data set [7] concerns the target AR deltaNTD N759 mutant (mouse) (UniProt P19091). Description: fluorescence polarization. The following applies: DHT, text says abrogated, 150 mM NaCl, 40 mM Tris pH 8.0, 1 mM TCEP, 20 uM DHT, 10% glycerol, 0.01% NP40, on ice, FP 100 nM DNA, 0-4 uM protein, recombinant protein, protein details: Smt3 fusion, removed by Ulp1.
In data set [8] the target is AR deltaNTD KRK 845-847 mutant (mouse) (UniProt P19091). Description: fluorescence polarization. The settings on record: DHT, text says abrogated, but gel shifts of most mutants resemble DBD; 150 mM NaCl, 40 mM Tris pH 8.0, 1 mM TCEP, 20 uM DHT, 10% glycerol, 0.01% NP40, on ice; FP 100 nM DNA, 0-4 uM protein; recombinant protein; protein details: Smt3 fusion, removed by Ulp1; label: 5' fluorescein (FP), unlabeled (EMSA).

Setting [9] is: but gel shifts of most mutants resemble DBD, label: 5' fluorescein (FP), unlabeled (EMSA).

Here are results for two sequences from article PMC9177810, “Allosteric interactions prime androgen receptor dimerization and activation”.

For some assays here: A weaker result is weaker than the reference pair of the same experiment. For some assays here: Where a protein sequence is shown, tags need not be part of it. For some assays here: The exact form of at least one protein or probe is not confirmed. For some assays here: At least one verdict rests on a figure or table, not on a statement of the authors. For some assays here: The direction of at least one scale is not stated here.

For “TACCTAGCGTGGCCAGAACATCATGTTCTCCGGTGCGATCCAG (double strand) [ARE/Scr (ARE43)]”, the binding result (with AR DBD (mouse) [1]; in data set [2]; in data set [3]; in data set [5] (setting [9]); in data set [6] (setting [9]); in data set [7] (setting [9])) was “binds more weakly” in each case. Also, the binding result in data set [8] was “binds more weakly”. Also, in the data set with AR DBD (mouse) [4], the binding signal (fold weaker than WT AR) is over 5.

As for “AGACCTAGCGTGGCCAGAACATCATTAAGCCCGGTGCGATCCAG (double strand) [ARE-Half-Site/Scr]”, the binding result in data set [5] (label: 5' fluorescein), in data set [6] (label: 5' fluorescein) and in data set [7] (label: 5' fluorescein) was “binds more weakly” each time.
